Record: PubChem BioAssay AID1224830 (NIAID, 2016)
The whole screen tested about 18,000 reagents; shown is a random part of them. In the full data, about 2,900 (16%) are marked active. 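Calls are made per well; low scores hint the gene aids the LPS response, high scores that it dampens it.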 Repeated entries: four replicate wells of each siRNA pool.

Aim: 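Host factors that control LPS-induced TNF expression in human macrophages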 (primary screen)
Cell system: human THP-1 monocytic leukaemia cells, TNF dual-luciferase reporter clone, PMA-differentiated to macrophage-like cells
Reagents: siRNA pool against human genes, 50 nM
Timing: LPS for 4 h, given about 3 days after siRNA transfection
Challenge: bacterial LPS (TLR4 ligand), 10 ng/ml
Read-out: 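TNF firefly reporter luminescence divided by renilla, normalised to the plate median, then turned into a robust z-score for each replicate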
Scale: TNF reporter robust z-score: higher = stronger TNF reporter response to LPS
Active means: 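Each well counts as active if its z-score is over 2.8 or under -1.5; controls are left without a call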

no.	gene knocked down	PubChem SID	TNF reporter robust z-score	Call
1	C5orf22	SID315457593	-1.12	inactive
2	C5orf22	SID315457593	-0.2	inactive
3	C5orf22	SID315457593	-1.08	inactive
4	C5orf22	SID315457593	-0.47	inactive
5	MRPL24	SID315459311	0.07	inactive
6	MRPL24	SID315459311	0.57	inactive
7	MRPL24	SID315459311	-0.44	inactive
8	MRPL24	SID315459311	-0.03	inactive
9	AMZ2	SID315456646	0.42	inactive
10	AMZ2	SID315456646	-0.22	inactive
11	AMZ2	SID315456646	0.7	inactive
12	VEGFA	SID315452110	0.61	inactive
13	VEGFA	SID315452110	8.35	active
14	VEGFA	SID315452110	1.97	inactive
15	VEGFA	SID315452110	0.77	inactive
16	PBX3	SID315450438	-0.63	inactive
17	PBX3	SID315450438	-0.11	inactive
18	PBX3	SID315450438	-0.46	inactive
19	PBX3	SID315450438	0.42	inactive
20	HOXA10	SID315449272	-0.78	inactive
21	HOXA10	SID315449272	-0.61	inactive
22	HOXA10	SID315449272	-0.88	inactive
23	HOXA10	SID315449272	-0.64	inactive
24	OR2F1	SID315455714	-1.53	active
25	OR2F1	SID315455714	-1.44	inactive
26	OR2F1	SID315455714	-1.55	active
27	OR2F1	SID315455714	-1.36	inactive
28	GPSM2	SID315456203	-0.16	inactive
29	GPSM2	SID315456203	0.12	inactive
30	GPSM2	SID315456203	-0.08	inactive
31	GPSM2	SID315456203	-0.24	inactive
32	LRP3	SID315449803	-0.08	inactive
33	LRP3	SID315449803	1.14	inactive
34	LRP3	SID315449803	0.75	inactive
35	LRP3	SID315449803	0.86	inactive
36	RCOR3	SID315457832	3.12	active
37	RCOR3	SID315457832	-0.35	inactive
38	RCOR3	SID315457832	-0.36	inactive
39	RCOR3	SID315457832	0.05	inactive
40	APOBEC3D	SID315462103	0.07	inactive
41	APOBEC3D	SID315462103	1.2	inactive
42	APOBEC3D	SID315462103	-0.22	inactive
43	APOBEC3D	SID315462103	-1.04	inactive
44	NFAM1	SID315462452	-1.38	inactive
45	NFAM1	SID315462452	-1.3	inactive
46	NFAM1	SID315462452	-1.23	inactive
47	NFAM1	SID315462452	-1.21	inactive
48	CCDC97	SID315460806	-1.29	inactive
49	CCDC97	SID315460806	-0.6	inactive
50	CCDC97	SID315460806	-0.96	inactive
51	CCDC97	SID315460806	0.2	inactive
52	TMEM14C	SID315456755	-1.09	inactive
53	TMEM14C	SID315456755	0.58	inactive
54	TMEM14C	SID315456755	0.24	inactive
55	TMEM14C	SID315456755	0.17	inactive

Called active, among the entries above:
gene knocked down	PubChem SID	TNF reporter robust z-score	Call
VEGFA	SID315452110	8.35	active
OR2F1	SID315455714	-1.53	active
OR2F1	SID315455714	-1.55	active
RCOR3	SID315457832	3.12	active

Additional reagents follow:
no.	gene knocked down	PubChem SID	TNF reporter robust z-score	Call
56	SLC37A3	SID315460269	0.19	inactive
57	SLC37A3	SID315460269	-0.1	inactive
58	SLC37A3	SID315460269	-0.75	inactive
59	SLC37A3	SID315460269	0.76	inactive
60	UBE2Q2	SID315461042	-0.93	inactive
61	UBE2Q2	SID315461042	-0.4	inactive
62	UBE2Q2	SID315461042	0.26	inactive
63	UBE2Q2	SID315461042	-0.13	inactive
64	EFEMP1	SID315448644	-0.34	inactive
65	EFEMP1	SID315448644	1.67	inactive
66	EFEMP1	SID315448644	0.87	inactive
67	EFEMP1	SID315448644	0.96	inactive
68	INTS1	SID315455706	-0.15	inactive
69	INTS1	SID315455706	-0.44	inactive
70	INTS1	SID315455706	-0.22	inactive
71	INTS1	SID315455706	0.24	inactive
72	PRSS16	SID315453970	-1.16	inactive
73	PRSS16	SID315453970	1.59	inactive
74	PRSS16	SID315453970	-0.68	inactive
75	PRSS16	SID315453970	-0.86	inactive
76	SGF29	SID315461162	-0.09	inactive
77	SGF29	SID315461162	-0.04	inactive
78	SGF29	SID315461162	0.83	inactive
79	SGF29	SID315461162	0.95	inactive
80	SLC17A1	SID315451502	-1	inactive
81	SLC17A1	SID315451502	-0.12	inactive
82	SLC17A1	SID315451502	-0.65	inactive
83	SLC17A1	SID315451502	-1.09	inactive
84	CNOT1	SID315454931	0.45	inactive
85	CNOT1	SID315454931	-0.6	inactive
86	CNOT1	SID315454931	4.21	active
87	CNOT1	SID315454931	0.69	inactive
88	PRMT6	SID315457462	-0.33	inactive
89	PRMT6	SID315457462	-0.26	inactive
90	PRMT6	SID315457462	0.12	inactive
91	DDX3X	SID315448275	-1.36	inactive
92	DDX3X	SID315448275	-1.45	inactive
93	DDX3X	SID315448275	-0.72	inactive
94	C22orf39	SID315461823	0.26	inactive
95	C22orf39	SID315461823	0.4	inactive
96	C22orf39	SID315461823	1.35	inactive
97	C22orf39	SID315461823	0.92	inactive
98	PCMT1	SID315450453	1.76	inactive
99	PCMT1	SID315450453	0.26	inactive
100	PCMT1	SID315450453	0.09	inactive
101	PCMT1	SID315450453	1.13	inactive
102	IL11	SID315449478	-0.03	inactive
103	IL11	SID315449478	-0.14	inactive
104	IL11	SID315449478	-0.69	inactive
105	IL11	SID315449478	-0.35	inactive
106	ADAMTS6	SID315454663	-0.6	inactive
107	ADAMTS6	SID315454663	-0.44	inactive
108	ADAMTS6	SID315454663	-0.07	inactive
109	ADAMTS6	SID315454663	-0.28	inactive
110	LPCAT1	SID315459541	-0.07	inactive
111	LPCAT1	SID315459541	-0.41	inactive
112	LPCAT1	SID315459541	-0.22	inactive
113	LPCAT1	SID315459541	-0.67	inactive
